Measured values taken from patent publication US9440976B2, “1,7-diazacarbazoles and methods of use” (Genentech, Inc., priority 2009, dated 2016).
Some entries share one result that the patent states for a list of compounds.

Legend:
[1] = system: human colorectal adenocarcinoma derived cell line HT-29; assay: Cellular assay (checkpoint abrogation); format: cell-based; settings: HT-29 cells; 20 nM SN-38, then 300 nM nocodazole plus compound for 24 h; read-out: EC50 (50% decrease of phospho-Histone H3)
chk1 = target: T1, chk1 (Homo sapiens, UniProt O14757); assay: Chk1 primary assays (AlphaScreen / ATP radiometric); format: biochemical; settings: read-out: IC50 against chk1; assays of EXAMPLE i; 10 μM ATP, 30 minutes; AlphaScreen or ATP radiometric format not specified
T1 construct: Full length human mutant recombinant protein, histidine tagged; histidine tag; purchased Invitrogen PV3982; host or cells: insect cells
T1 sequence (O14757 1-476): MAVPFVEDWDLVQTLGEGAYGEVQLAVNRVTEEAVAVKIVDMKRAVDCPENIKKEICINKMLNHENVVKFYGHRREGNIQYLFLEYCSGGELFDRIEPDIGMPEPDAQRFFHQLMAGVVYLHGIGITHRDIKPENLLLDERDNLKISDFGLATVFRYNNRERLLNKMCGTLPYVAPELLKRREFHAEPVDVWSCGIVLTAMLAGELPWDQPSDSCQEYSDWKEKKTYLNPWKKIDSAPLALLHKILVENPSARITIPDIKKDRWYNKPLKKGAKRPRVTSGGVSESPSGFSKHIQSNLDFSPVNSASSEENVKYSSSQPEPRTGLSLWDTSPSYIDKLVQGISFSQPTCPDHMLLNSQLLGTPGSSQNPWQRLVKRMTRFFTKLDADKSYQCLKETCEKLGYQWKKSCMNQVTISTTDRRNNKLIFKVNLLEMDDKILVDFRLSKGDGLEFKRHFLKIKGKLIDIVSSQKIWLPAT

| SMILES | EC50 [1] [µM] | IC50 (chk1) [µM] |
| --- | --- | --- |
| N#Cc1ncc2[nH]c3ncccc3c2c1OC[C@@H]1CCCN1 [Example 118, 5-((S)-1-Pyrrolidin-2-ylmethoxy)-9H-dipyrido[2,3-b;4′,3′-d]pyrrole-6-carbonitrile] | < 10 | < 5 |
| N#Cc1ncc2[nH]c3ncccc3c2c1OC[C@H]1CCCN1 [Example 112, 5-((R)-1-Pyrrolidin-2-ylmethoxy)-9H-dipyrido[2,3-b;4′,3′-d]pyrrole-6-carbonitrile] | < 10 | < 5 |
| N#Cc1ncc2[nH]c3ncccc3c2c1OC12CCN(CC1)CC2 [Example 144, 5-(1-Aza-bicyclo[2.2.2]oct-4-yloxy)-9H-dipyrido[2,3-b;4′,3′-d]pyrrole-6-carbonitrile] |  | < 5 |
| N#Cc1ncc2[nH]c3ncccc3c2c1N[C@@H]1CN2CCC1CC2 [Example 124, 5-[(S)-(1-Azabicyclo[2.2.2]oct-3-yl)amino]-9H-dipyrido[2,3-b;4′,3′-d]pyrrole-6-carbonitrile] |  | < 5 |
